Reference: PubChem BioAssay AID686937 (Drosophila RNAi Screening Center, 2013)
Test: 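Genes whose loss weakens secretory pathway function in fly cells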 (primary screen). System: Drosophila S2 cells expressing secreted horseradish peroxidase. Knock-down reagent: long dsRNA against Drosophila genes. Timing: about 5.5 days (5 days dsRNA, then 12 h reporter induction). Treatment: reporter expression induced after 5 days of dsRNA, read 12 h later; inducer not stated. Measurement: 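After 5 days of dsRNA and 12 h of reporter induction, medium peroxidase read by chemiluminescence and scored as per-plate z-score; higher values mean more reporter released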. Direction: z-score: higher = more reporter secreted into medium.
In all, the deposit lists about 23,000 reagents; below is a random part of those with a known target gene and a result. 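Reduced-secretion tags in replicate 1 do not always agree with the z-scores; no criterion for assigning the tags was given.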 No sequences are given here. Not given: the amount of reagent.

Gene | amplicon | z-score, replicate 1 | z-score, replicate 2 | z-score, replicate 3 | z-score, replicate 4 | phenotype, replicate 1
GC (GeneID 38194) | DRSC08396 | 0.33 | 0.27 | – | – | –
CG13047 (GeneID 39790) | DRSC09928 | 0.15 | 0.23 | – | – | –
l(3)87Df (GeneID 49762) | DRSC16982 | 0.45 | 0.73 | – | – | –
CG13258 (GeneID 34959) | DRSC02244 | -0.15 | -0.14 | – | – | –
CG8435 (GeneID 36789) | DRSC07179 | -1.62 | -1.93 | – | – | reduced secretion
CG6254 (GeneID 41244) | DRSC16002 | 0.5 | 0.15 | – | – | –
Cyp18a1 (GeneID 32858) | DRSC20235 | 0.3 | 0.3 | – | – | –
Rh4 (GeneID 39887) | DRSC11268 | 0.31 | 0.47 | 0.38 | -0.09 | –
CG31635 (GeneID 33928) | DRSC02273 | 0.83 | 0.46 | – | – | –
CG31635 (GeneID 33928) | DRSC02274 | -0.85 | -0.48 | – | – | –
Mst84Dc (GeneID 40887) | DRSC12599 | -0.22 | 0.17 | – | – | –
Toll-4 (GeneID 34235) | DRSC03458 | 0.45 | -0.16 | – | – | –
CG8586 (GeneID 35854) | DRSC07218 | 0.3 | 0.2 | – | – | –
Myc (GeneID 31310) | DRSC18762 | -2.33 | -3.02 | – | – | reduced secretion
GATAe (GeneID 41945) | DRSC14223 | 0.55 | 0.09 | -0.13 | -0.26 | –
CG11378 (GeneID 31060) | DRSC18627 | 0.39 | 0.38 | – | – | –
Gp210 (GeneID 35512) | DRSC04861 | 0.35 | 0.1 | – | – | –
Gp210 (GeneID 35512) | DRSC04900 | 0.19 | 0.34 | – | – | –
CG12814 (GeneID 41246) | DRSC14552 | -7.03 | 0.22 | – | – | reduced secretion
CG12814 (GeneID 41246) | DRSC14553 | 0.17 | -0.25 | – | – | –
LS2 (GeneID 37681) | DRSC04340 | 0.62 | 0.4 | – | – | –
rpk (GeneID 40580) | DRSC12386 | 0.13 | 0.32 | – | – | –
rpk (GeneID 40580) | DRSC21656 | 2.16 | -0.39 | – | – | –
CG7714 (GeneID 42250) | DRSC16300 | 0.37 | 0.48 | – | – | –
p53 (GeneID 2768677) | DRSC17024 | 0.23 | 0.31 | – | – | –
kibra (GeneID 41783) | DRSC14533 | 0.49 | 0.81 | – | – | –
kibra (GeneID 41783) | DRSC16257 | -3.97 | -3.85 | – | – | reduced secretion
NKAIN (GeneID 37979) | DRSC04531 | 0.06 | -0.05 | – | – | –
NKAIN (GeneID 37979) | DRSC22470 | -0.01 | -0.03 | – | – | –
mtt (GeneID 35832) | DRSC05106 | -0.23 | – | – | – | –
mtt (GeneID 35832) | DRSC05107 | -0.82 | – | – | – | –
mtt (GeneID 35832) | DRSC06753 | 0.35 | 0.34 | – | – | –
mtt (GeneID 35832) | DRSC07235 | 0.56 | 0.44 | – | – | –
